In test [1] the target is V5-p53-miniTurbo-NES (human) (UniProt P04637). Briefly: proximity labelling; BioID: V5-p53-miniTurbo-NES in HepG2 p53KO cells, 2 h growth or starvation medium with 250 µM biotin; lysis in 8 M urea, streptavidin beads, LC-MS/MS; background control V5-EGFP-miniTurbo-NES.
Test [2] deals with p53 (endogenous) (human (endogenous in HepG2)) (UniProt P04637). The test is described as follows: affinity purification with mass spectrometry; RIME as above, samples of cells kept 24 h in growth medium only.
Test [3] shares this target. Briefly: affinity purification with mass spectrometry; RIME: HepG2 wt cells 24 h in growth or starvation medium, cross-linked with 1% formaldehyde, nuclei isolated, endogenous p53 precipitated with DO1 antibody, IgG2A isotype control, on-bead digest, LC-MS/MS.
The target in test [4] is V5-p53-miniTurbo-NES (human), P04637. The test is described as follows: proximity labelling; BioID: V5-p53-miniTurbo-NES in HepG2 p53KO cells, 2 h growth or starvation medium with 250 µM biotin; lysis in 8 M urea, streptavidin beads, LC-MS/MS; background control V5-EGFP-miniTurbo-NES. The settings on record: remark: other sources report otherwise.

These are yes or no findings as the source states them, for the method shown. Binding seen in cells or lysates may run through a third protein. These calls come from enrichment with a bait or labelling near it, and not all partners need be listed. For some of these results: A no says only that the protein was not detected with the bait.

B1: transcription factor A (TFAM) (protein, UniProt Q00059 43-246)
chain: SSVLASCPKKPVSSYLRFSKEQLPIFKAQNPDAKTTELIRRIAQRWRELPDSKKKIYQDAYRAEWQVYKEEISRFKEQLTPSQIMSLEKEIMDKHLKRKAMTKKKELTLLGKPKRPRSAYNVYVAERFQEAKGDSPQEKLKTVKENWKNLSDSEKELYIQHAKEDETRYHNEMKSWEEQMIEVGRKDLLRRTIKKQRKYGAEEC
In the case of B1, the binding entry in test [1] is recorded as “binds”.

B2: UGP2 (endogenous) (enzyme, UniProt Q16851 1-508)
chain: MSRFVQDLSKAMSQDGASQFQEVIRQELELSVKKELEKILTTASSHEFEHTKKDLDGFRKLFHRFLQEKGPSVDWGKIQRPPEDSIQPYEKIKARGLPDNISSVLNKLVVVKLNGGLGTSMGCKGPKSLIGVRNENTFLDLTVQQIEHLNKTYNTDVPLVLMNSFNTDEDTKKILQKYNHCRVKIYTFNQSRYPRINKESLLPVAKDVSYSGENTEAWYPPGHGDIYASFYNSGLLDTFIGEGKEYIFVSNIDNLGATVDLYILNHLMNPPNGKRCEFVMEVTNKTRADVKGGTLTQYEGKLRLVEIAQVPKAHVDEFKSVSKFKIFNTNNLWISLAAVKRLQEQNAIDMEIIVNAKTLDGGLNVIQLETAVGAAIKSFENSLGINVPRSRFLPVKTTSDLLLVMSNLYSLNAGSLTMSEKREFPTVPLVKLGSSFTKVQDYLRRFESIPDMLELDHLTVSGDVTFGKNVSLKGTVIIIANHGDRIDIPPGAVLENKIVSGNLRILDH
As for B2, the binding result in test [2] is on record as “no binding (only cells in growth medium)”; in test [3] it was “binds”.

B3: Phosphoglycerate kinase 1 (PGK1), P00558 1-417 (enzyme)
chain: MSLSNKLTLDKLDVKGKRVVMRVDFNVPMKNNQITNNQRIKAAVPSIKFCLDNGAKSVVLMSHLGRPDGVPMPDKYSLEPVAVELKSLLGKDVLFLKDCVGPEVEKACANPAAGSVILLENLRFHVEEEGKGKDASGNKVKAEPAKIEAFRASLSKLGDVYVNDAFGTAHRAHSSMVGVNLPQKAGGFLMKKELNYFAKALESPERPFLAILGGAKVADKIQLINNMLDKVNEMIIGGGMAFTFLKVLNNMEIGTSLFDEEGAKIVKDLMSKAEKNGVKITLPVDFVTADKFDENAKTGQATVASGIPAGWMGLDCGPESSKKYAEAVTRAKQIVWNGPVGVFEWEAFARGTKALMDEVVKATSRGCITIIGGGDTATCCAKWNTEDKVSHVSTGGGASLELLEGKVLPGVDALSNI
Regarding B3, in test [4], the binding entry was “binds”.

B4: Sorbin and SH3 domain-containing protein 1 (SORBS1) (protein, UniProt Q9BX66 1-1292)
chain: MSSECDGGSKAVMNGLAPGSNGQDKATADPLRARSISAVKIIPVKTVKNASGLVLPTDMDLTKICTGKGAVTLRASSSYRETPSSSPASPQETRQHESKPGLEPEPSSADEWRLSSSADANGNAQPSSLAAKGYRSVHPNLPSDKSQDATSSSAAQPEVIVVPLYLVNTDRGQEGTARPPTPLGPLGCVPTIPATASAASPLTFPTLDDFIPPHLQRWPHHSQPARASGSFAPISQTPPSFSPPPPLVPPAPEDLRRVSEPDLTGAVSSTDSSPLLNEVSSSLIGTDSQAFPSVSKPSSAYPSTTIVNPTIVLLQHNREQQKRLSSLSDPVSERRVGEQDSAPTQEKPTSPGKAIEKRAKDDSRRVVKSTQDLSDVSMDEVGIPLRNTERSKDWYKTMFKQIHKLNRDTPEENPYFPTYKFPELPEIQQTSEEDNPYTPTYQFPASTPSPKSEDDDSDLYSPRYSFSEDTKSPLSVPRSKSEMSYIDGEKVVKRSATLPLPARSSSLKSSSERNDWEPPDKKVDTRKYRAEPKSIYEYQPGKSSVLTNEKMSRDISPEEIDLKNEPWYKFFSELEFGKPPPKKIWDYTPGDCSILPREDRKTNLDKDLSLCQTELEADLEKMETLNKAPSANVPQSSAISPTPEISSETPGYIYSSNFHAVKRESDGAPGDLTSLENERQIYKSVLEGGDIPLQGLSGLKRPSSSASTKDSESPRHFIPADYLESTEEFIRRRHDDKEKLLADQRRLKREQEEADIAARRHTGVIPTHHQFITNERFGDLLNIDDTAKRKSGSEMRPARAKFDFKAQTLKELPLQKGDIVYIYKQIDQNWYEGEHHGRVGIFPRTYIELLPPAEKAQPKKLTPVQVLEYGEAIAKFNFNGDTQVEMSFRKGERITLLRQVDENWYEGRIPGTSRQGIFPITYVDVIKRPLVKNPVDYMDLPFSSSPSRSATASPQFSSHSKLITPAPSSLPHSRRALSPEMHAVTSEWISLTVGVPGRRSLALTPPLPPLPEASIYNTDHLALSPRASPSLSLSLPHLSWSDRPTPRSVASPLALPSPHKTYSLAPTSQASLHMNGDGGVHTPSSGIHQDSFLQLPLGSSDSVISQLSDAFSSQSKRQPWREESGQYERKAERGAGERGPGGPKISKKSCLKPSDVVRCLSTEQRLSDLNTPEESRPGKPLGSAFPGSEAEQTERHRGGEQAGRKAARRGGSQQPQAQQRRVTPDRSQTSQDLFSYQALYSYIPQNDDELELRDGDIVDVMEKCDDGWFVGTSRRTKQFGTFPGNYVKPLYL
For the molecule B4, the binding result in test [3] is given as “binds”.

B5: Malate dehydrogenase (MDH2) (enzyme, UniProt P40926 25-338)
chain: AKVAVLGASGGIGQPLSLLLKNSPLVSRLTLYDIAHTPGVAADLSHIETKAAVKGYLGPEQLPDCLKGCDVVVIPAGVPRKPGMTRDDLFNTNATIVATLTAACAQHCPEAMICVIANPVNSTIPITAEVFKKHGVYNPNKIFGVTTLDIVRANTFVAELKGLDPARVNVPVIGGHAGKTIIPLISQCTPKVDFPQDQLTALTGRIQEAGTEVVKAKAGAGSATLSMAYAGARFVFSLVDAMNGKEGVVECSFVKSQETECTYFSTPLLLGKKGIEKNLGIGKVSSFEEKMISDAIPELKASIKKGEDFVKTLK
Take B5: the binding result in test [1] is recorded as “binds”.

B6: Peroxiredoxin-2 (PRDX2) (enzyme, UniProt P32119 1-198)
chain: MASGNARIGKPAPDFKATAVVDGAFKEVKLSDYKGKYVVLFFYPLDFTFVCPTEIIAFSNRAEDFRKLGCEVLGVSVDSQFTHLAWINTPRKEGGLGPLNIPLLADVTRRLSEDYGVLKTDEGIAYRGLFIIDGKGVLRQITVNDLPVGRSVDEALRLVQAFQYTDEHGEVCPAGWKPGSDTIKPNVDDSKEYFSKHN
For B6, the binding result in test [1] is “binds”.
